This test is described as follows: qHTS Assay for Lipid Storage Modulators in Drosophila S3 Cells.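 On cell number change: cells counted by Cell Tracker Red CMTPX staining in the red channel.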 The following applies: BODIPY lipid droplet fluorescence, 18-24 h; for cell number change: measured here: cell count max response, cells fed with added oleic acid. Put shortly: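 Drosophila S3 cells loaded with oleic acid (400 uM, as added) and compounds at several concentrations; lipid droplets imaged by 488-nm laser-scanning cytometry, 500–530 nm intensity and object ratio to cell channel. Percent activity normalized to 20 uM Triacsin C.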
(In general: Quantitative high-throughput screening tests each substance at several concentrations.)

The mark [1] stands for this setting: measured here: cell number channel AC50, cells fed with added oleic acid.
The mark [2] stands for this setting: measured here: lipid fluorescence (Fed channel) AC50, cells fed with added oleic acid.

The results in this text go back to PubChem BioAssay AID2685 (National Center for Advancing Translational Sciences (NCATS), 2010).

Some of the results follow. The main result of the screen is listed elsewhere. These columns were measured beside it and carry no call. The list favours compounds with an active or inconclusive main result. Potencies come from curve fits of mixed quality, noted in brackets.

The AC50 is the concentration giving half of the maximal activity seen. The low end stands for greater potency, the high end for weaker potency. In the case of `CCOc1ccc(-c2cc(C)[n+](CCO)c(-c3ccc(OCC)cc3)c2)cc1`, the cell number change was -35%. Under setting [1], the AC50 was 18.4 µM [falling, single point]. Moreover, the AC50 under setting [2] is 29.1 µM [falling, single point].
On to `CN(CC(=O)Nc1ccc(F)cc1)C(=O)Cn1c(=O)oc2ccccc21`, for which the AC50 under setting [1] was 16.4 µM [rising, single point].
Consider `CC(=O)Nc1ccccc1OP1(=O)COc2ccccc2OC1`, for which the cell number change was -8.48%. Under setting [1], the AC50 was 1.3 µM [falling, full curve]. The AC50 under setting [2] is 6.51 µM [falling, single point].
Regarding `CNC(=O)Oc1ccc2ncccc2c1`, the cell number change was 35%. Under setting [1], the AC50 was 20.6 µM [rising, single point]. Under setting [2], the half-maximal activity concentration (AC50) was 13 µM [rising, partial curve].
In the case of `COc1cc(CNCCc2ccc3c(c2)OCO3)cc(OC)c1OC`, the AC50 under setting [2] is 0.58 µM [falling, single point].
On to `CNc1ccccc1`, for which the AC50 under setting [1] is 1.16 µM [falling, single point].
As to `Cn1c(=O)oc2cc(S(=O)(=O)N3CCCC3)ccc21`, the concentration at half-maximal activity (AC50) under setting [1] is 3.66 µM [falling, full curve].
With `COCCOC(=O)C1=C(N)Oc2c(c(=O)oc3ccccc23)[C@@]12C(=O)Nc1ccccc12`, the cell number change is 32.6%. Besides, the AC50 under setting [1] was 2.91 µM [rising, full curve, poor fit]. Under setting [2], the AC50 is 6.51 µM [rising, single point].
With `OCC1CO1` (configuration not stated), the cell number change is -14.2%. Moreover, under setting [1], the concentration at half-maximal activity (AC50) was 1.16 µM [falling, single point].
Regarding `C=CCn1c(O)c(C(C)=NCCc2c[nH]c3ccccc23)c(=O)[nH]c1=O`, the cell number change was -3.53%. The AC50 under setting [1] is 0.184 µM [rising, full curve]. In addition, under setting [2], the concentration at half-maximal activity (AC50) is 0.291 µM [rising, full curve].
With `C/C(=N\NC(=O)c1ccccc1O)c1c(O)n(C2CCCCC2)c(=O)[nH]c1=O`, the cell number change was determined as 30.7%. Further, the AC50 under setting [1] is 32.6 µM [rising, single point]. Further, the half-maximal activity concentration (AC50) under setting [2] is 23.1 µM [rising, single point].
Regarding `COc1ccc(-n2c(O)c(C(C)=NCc3ccc4c(c3)OCO4)c(=O)[nH]c2=O)cc1`, the AC50 under setting [1] was 0.0731 µM [rising, full curve, poor fit] and the half-maximal activity concentration (AC50) under setting [2] is 0.259 µM [rising, partial curve, poor fit].
Take `CCCCN1C(=O)/C(=C/c2ccc(N(C)C)cc2)C(=O)N(Cc2ccco2)C1=O`: the cell number change stood at 2.78%. Besides, under setting [2], the AC50 was 6.51 µM [falling, partial curve].
Consider `CCCC(CCC)C(=O)OC[N+](C)(C)CCOC(=O)C(O)(c1ccccc1)C1CCCC1` (configuration not stated), for which the cell number change was -15%. Also, the concentration at half-maximal activity (AC50) under setting [2] was 29.1 µM [falling, single point].
`COC(=O)C1=C(c2ccc(OC(F)(F)F)cc2)C[C@@H]2CC[C@H]1N2C(=O)NCCOc1ccccc1`: the cell number change was -38.3%. The AC50 under setting [1] was 29.1 µM [falling, single point]. Moreover, the AC50 under setting [2] is 0.00517 µM [rising, full curve, poor fit].
Consider `CNC(=O)O/N=C/c1nn(C(=O)C(C)(C)C)cc1Br`, for which the cell number change was -0.381%. In addition, the AC50 under setting [2] is 4.11 µM [falling, single point].
Take `COc1ccc(C)cc1NS(=O)(=O)c1ccc2c(c1)oc(=O)n2C`: under setting [1], the AC50 was 0.731 µM [rising, full curve, poor fit].
The same measure, in the same setting: the figure for `CCc1ccc(-c2nn(Cc3ccccc3)cc2C=O)cc1` is 0.326 µM [rising, partial curve, poor fit].
Regarding `Clc1ccc(N2CCN(Cc3ccccc3Cl)CC2)cc1`, the cell number change was -3.89%.
In the case of `O=c1[nH]c(=S)n(Cc2ccc(F)cc2)c(O)c1/C=N/N1CCCCCC1`, the cell number change was -4.35%. Further, the AC50 under setting [2] was 6.51 µM [rising, single point].
On to `N#Cc1c(/N=C/c2c(O)n(Cc3ccco3)c(=O)[nH]c2=O)sc2c1CCCC2`, for which the cell number change was -6.03%.
Turning to `CCN1CCN(c2nc3c(c(=O)[nH]2)CCCC3)CC1`, the cell number change is -46.5%. In addition, under setting [1], the AC50 was 29.1 µM [falling, single point]. Moreover, under setting [2], the AC50 is 29.1 µM [falling, single point].
As for `Cc1ccc(-c2nc3ccccc3c(=O)n2-n2cccc2)cc1`, the cell number change was -50.4%. Moreover, the half-maximal activity concentration (AC50) under setting [1] was 29.1 µM [falling, single point]. Moreover, the half-maximal activity concentration (AC50) under setting [2] is 0.206 µM [rising, full curve].
Consider `Cc1ccc([N+](=O)[O-])cc1`, for which the cell number change is -3.73%. Moreover, the AC50 under setting [2] is 0.00461 µM [rising, full curve, poor fit].
`Fc1c(F)c(F)c(N2CCNCC2)c(F)c1F`: the cell number change was -30.5%.
In the case of `Brc1ccc2[nH]cc(/C=N/N3CCCCC3)c2c1`, the cell number change was 7.26%. Also, the concentration at half-maximal activity (AC50) under setting [2] was 0.517 µM [rising, full curve, poor fit].
`CC(C)CC12CN3CCN(CC(C3)/C1=N/O)C2`: the cell number change was -28%. Moreover, the concentration at half-maximal activity (AC50) under setting [1] was 0.92 µM [falling, full curve]. The concentration at half-maximal activity (AC50) under setting [2] is 0.651 µM [falling, full curve, poor fit].
Turning to `COC(=O)C1=C(c2ccc(F)cc2OCc2ccccc2)C[C@@H]2CC[C@H]1N2C(=O)NCc1ccc(OC)c(OC)c1`, the cell number change was 13.9%. For the same compound, the AC50 under setting [2] is 0.00411 µM [rising, full curve, poor fit].
Regarding `c1cncc(C2CCCCN2Cc2ccc3c(c2)OCO3)c1` (configuration not stated), the cell number change turned out to be 23%. The AC50 under setting [2] is 0.13 µM [rising, full curve, poor fit].
`CCCCn1c(=O)c(C(=O)Nc2cccc(C)c2)c(O)c2ccccc21`: the cell number change stood at 14.6%. Also, the AC50 under setting [1] was 0.259 µM [rising, full curve, poor fit].
As to `CC(=O)NC1C(OC(=O)Cc2ccccc2)OC(COC(C)=O)C(OC(C)=O)C1OC(C)=O` (configuration not stated), the cell number change came out at 1.57%.
In the case of `COC(=O)C1=C(c2ccc(OCc3ccccc3)cc2)C[C@@H]2CC[C@H]1N2C(=O)NCc1ccccc1`, the cell number change was -15.9%. Under setting [2], the AC50 was 29.1 µM [falling, single point].
For `COC(=O)C1=C(c2cccc(OCc3ccccc3)c2)C[C@@H]2CC[C@H]1N2C(=O)NCc1ccc2[nH]ccc2c1`, the cell number change was -55.1%. The AC50 under setting [1] is 20.6 µM [falling, single point]. For the same compound, under setting [2], the half-maximal activity concentration (AC50) was 6.51 µM [falling, single point].
Turning to `Cc1cccc(C)c1OP(N)(=O)OCC(F)(F)F` (configuration not stated), the cell number change was found to be 2.27%.
As to `CC1C(c2cccs2)=[N+]([O-])C(C)(C(=O)c2cccs2)N1O` (configuration not stated), the cell number change is -43%. Besides, under setting [1], the half-maximal activity concentration (AC50) was 29.1 µM [falling, partial curve, poor fit]. In addition, the AC50 under setting [2] is 18.4 µM [falling, partial curve, poor fit].
On to `O=C1Nc2ccc(Br)cc2C(c2ccccc2Cl)=NC1O` (configuration not stated), for which the cell number change came out at 9.98%.
